Screen size: about 340,000 compounds; about 4,500 (1.3%) were called active. Inconclusive results, whose numbers are uncertain, are shown with a selection of clear calls. Calls follow the shape of the dose curve; as a rule, active = well fitted inhibition curve with a large enough effect; inconclusive = small, poorly fitted or top-dose-only effect, or another doubt; inactive = no such curve, though single readings can be large or run the other way. Potencies of inconclusive entries are doubtful fits and often do not repeat.
target: DNA polymerase beta (Homo sapiens) (UniProt P06746); experiment: qHTS Assay for Inhibitors of DNA Polymerase Beta; details: Pol beta primer extension/strand displacement, fluorescence kinetic; activity change, negative = inhibition: at 114 µM (top of the series)
Procedure, shortened: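 Curves were derived by four-parameter Hill fits of normalized qHTS data. The kinetic fluorescent primer-extension read was taken at 0 and 10 min after 50 nM substrate, following a 15 min room-temperature preincubation of 10 nM enzyme with compounds.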
% is scaled to controls: 0 for no effect and ±100 for the full control effect; potency is read from the fitted curve at half-maximal effect.

Row | Compound | Potency | activity change, negative = inhibition
1 | Cc1ccc(C)n1NC(=O)c1ccco1 | inconclusive: 89.1 µM [inhibitor, single point] | 
2 | COc1cccc(-n2c(=O)c3c4c(sc3n(Cc3ccccc3C#N)c2=O)CCCC4)c1 | inconclusive: 100 µM [inhibitor, single point] | 
3 | NC(=O)C1CCN(C2=C(NS(=O)(=O)c3ccccc3)C(=O)c3ccccc3C2=O)CC1 | inactive | 
4 | NNc1nc2c(-c3ccc(Cl)cc3)nnn2c2ccccc12 | inconclusive: 28.2 µM [inhibitor, single point] | 
5 | O=C(NCc1ccccc1Cl)C1CCN(S(=O)(=O)c2ccc(-n3cnnn3)cc2)CC1 | inconclusive: 0.199 µM [inhibitor, full curve, poor fit] | 
6 | COc1ccc(C(=O)OCC(=O)Nc2sccc2C(N)=O)cc1OC | inactive | 
7 | c1ccc2[nH]c(CCCCc3nc4ccccc4[nH]3)nc2c1 | inconclusive: 3.55 µM [inhibitor, partial curve, poor fit] | 
8 | COc1ccc(NC(=S)NCCSc2ccc(Cl)cc2)c(OC)c1 | inconclusive: 7.08 µM [inhibitor, full curve, poor fit] | 
9 | COC(=O)c1ccc(OCc2cc(=O)n3ccsc3n2)cc1 | inconclusive: 39.8 µM [inhibitor, single point] | 
10 | Cc1ccc(C(=O)Nc2cccc(C(=O)NCc3ccco3)c2)cc1 | inconclusive: 39.8 µM [inhibitor, partial curve] | 
11 | O=C(Nc1ccccc1C(F)(F)F)C1CCN(c2nnc(-n3cccc3)s2)CC1 | inconclusive: 25.1 µM [inhibitor, full curve] | 
12 | O=C(Cn1cc(SCc2ccc(F)cc2)c2ccccc21)N1CCCC1 | inactive | 
13 | COc1ccc(C2=CC(c3ccco3)n3ncnc3N2)cc1 (stereo unspecified) | inconclusive: 22.4 µM [inhibitor, partial curve, poor fit] | 
14 | O=C(NCCNc1ccc2ccccc2c1)c1cccn2c(=O)c3sccc3nc12 | inconclusive: 39.8 µM [inhibitor, single point] | 
15 | CC(=O)N(C)c1ccc(NC(=O)Cc2cccs2)cc1 | inconclusive: 70.8 µM [inhibitor, single point] | 
16 | COc1ccccc1N1CCN(S(=O)(=O)c2ccc(Br)s2)CC1 | inconclusive: 20 µM [inhibitor, partial curve] | 
17 | CCC(=S)/C=C1\Sc2ccc3ccccc3c2N1CCCS(=O)(=O)O | inconclusive: 35.5 µM [inhibitor, single point] | 
18 | COc1ccc(C)cc1NC(=O)c1sc2ncnc(N3CCN(c4ccccn4)CC3)c2c1C | inconclusive: 89.1 µM [inhibitor, single point] | 
19 | Cc1cccc(/C=N/NC(=O)c2ccc(NC(=O)c3cccc(Cl)c3)cc2)n1 | inconclusive: 50.1 µM [inhibitor, partial curve] | 
20 | Cc1cc(C)c(S(=O)(=O)N2CCC(C(N)=O)CC2)cc1C | inconclusive: 31.6 µM [inhibitor, partial curve] | 
21 | COc1cc(/C=N/NC(=O)c2ccc3nc[nH]c3c2)ccc1O |  | inconclusive: -45.9% [inhibitor]

Rewritten in markdown: part of the list above.

| Row | Compound | Potency | activity change, negative = inhibition |
| --- | --- | --- | --- |
| 4 | NNc1nc2c(-c3ccc(Cl)cc3)nnn2c2ccccc12 | inconclusive: 28.2 µM [inhibitor, single point] |  |
| 5 | O=C(NCc1ccccc1Cl)C1CCN(S(=O)(=O)c2ccc(-n3cnnn3)cc2)CC1 | inconclusive: 0.199 µM [inhibitor, full curve, poor fit] |  |

Next part.

Row | Compound | Potency | activity change, negative = inhibition
22 | O=C(/C=C/Nc1ccccc1Oc1ccccc1)c1ccco1 | inconclusive: 15.8 µM [inhibitor, full curve, poor fit] | 
23 | NNc1nc2ccccc2c(=O)n1Cc1ccccc1 | inconclusive: 39.8 µM [inhibitor, single point] | 
24 | CCc1nc(SCc2nc3ccccc3[nH]2)c2oc3ccccc3c2n1 | inconclusive: 35.5 µM [inhibitor, partial curve] | 
25 | Cc1cccc(-c2nc(S(=O)(=O)c3ccccc3)c(N3CCN(c4ccccc4)CC3)o2)c1 | inconclusive: 100 µM [inhibitor, single point] | 
26 | Cc1nn(C(C)C(=O)Nc2cccc(F)c2)c(=O)c2c1sc1ccccc12 (stereo unspecified) | inconclusive: 100 µM [inhibitor, single point] | 
27 | COc1ccc(-n2sc3c(c2=S)-c2cc(OC)ccc2NC3(C)C)cc1 | inconclusive: 63.1 µM [inhibitor, single point] | 
28 | Cc1onc(-c2c(F)cccc2Cl)c1C(=O)N(C)C1CCCCC1 | inconclusive: 0.141 µM [inhibitor, full curve, poor fit] | 
29 | CC(C)N(C(=O)Cn1cc(S(=O)(=O)CC(=O)Nc2ccccc2)c2ccccc21)C(C)C | inconclusive: 39.8 µM [inhibitor, single point] | 
30 | O=C(/C=C/c1cccs1)Nc1scc(-c2ccccc2)c1C(=O)O | inconclusive: 39.8 µM [inhibitor, full curve, poor fit] | 
31 | CCc1ccccc1NS(=O)(=O)c1ccc(SC)cc1 | inconclusive: 89.1 µM [inhibitor, single point] | 
32 | Cc1ccc2c(CSc3nc4ccccc4c(=O)n3CCCO)cc(=O)oc2c1C | inconclusive: 89.1 µM [inhibitor, single point] | 
33 | C/C(=N/NC(=O)c1cc(O)c(O)c(O)c1)c1ccc([N+](=O)[O-])cc1 | active: 1.78 µM | 
34 | Cc1nc2cc(NC(=O)NCc3ccc4c(c3)OCO4)ccc2o1 | inconclusive: 79.4 µM [inhibitor, single point] | 
35 | CCCN1C(=O)c2cc(C(=O)O)ccc2C1O (stereo unspecified) | inconclusive: 79.4 µM [inhibitor, single point] | 
36 | Cc1cc(C(=O)CSc2nnc(-c3ccc(Cl)cc3)n2C)c(C)n1CC1CCCO1 (stereo unspecified) | inconclusive: 0.126 µM [inhibitor, full curve, poor fit] | 
37 | CN(C)CCOC(c1ccc(Cl)cc1)c1ccccn1 (stereo unspecified) | inconclusive: 50.1 µM [inhibitor, partial curve] | 
38 | Nn1c(Cc2ccccc2F)nnc1SCCOc1ccc(Cl)cc1 | inconclusive: 0.141 µM [inhibitor, full curve, poor fit] | 
39 | Cc1ccc(S(=O)(=O)N(CC(O)Cn2c3ccccc3c3ccccc32)c2cccc(C(=O)N(C)C)c2)cc1 (stereo unspecified) | inactive | 
40 | O=C(Nc1ccccc1)C1C2CCCCC21 (stereo unspecified) | inconclusive: 25.1 µM [inhibitor, single point] | 
41 | CNCc1ccccc1Sc1ccc(O)c(O)c1 | inconclusive: 50.1 µM [inhibitor, partial curve] | 

From PubChem BioAssay AID485314 (National Center for Advancing Translational Sciences (NCATS), 2010)
